Results deposited as PubChem BioAssay AID1259280 (Sanger Institute, 2017)
The whole screen tested 794 reagents; below is a part drawn at random. Of all reagents, 12 (1.5%) were called active. 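Calls cover knock-down without drug only; synergy scores stand apart, values above 0.15 being treated as synergy.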 No viability above 1 is reported: the scale is capped. Further read-outs or replicates are left out here. No sequences are given here. Not stated in the record: the amount of reagent, the time to read-out.

Purpose: 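Kinase knock-downs that kill colorectal cancer cells or add to anchor drugs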 (primary screen)
System: human SNU407 colorectal cancer cells
Reagents: siRNA pool against human genes
Treatment: anchor drugs BYL719 at 1 µM, cetuximab at 5 µg/ml or trametinib at 10 nM, or DMSO vehicle alone; exposure time not given
Measured: 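Viability per well scaled to a non-targeting pool and averaged over replicates, with a robust z-score from controls and a synergy score per anchor drug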
Direction: viability z-score, no drug and viability vs control, no drug: higher = more cells survive the knock-down
Rule for the call: 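Essential calls require a no-drug robust viability z-score under -3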
Meaning of the calls: active = essential (knock-down alone kills cells); inactive = no change without drug

target gene	viability z-score, no drug	viability vs control, no drug (fraction of control)	activity call
RPS6KC1 (ribosomal protein S6 kinase C1)	0.539	0.972	inactive
KMT2B (lysine methyltransferase 2B)	-0.681	0.879	inactive
MAPKAPK5 (MAPK activated protein kinase 5)	0.615	0.978	inactive
XYLB (xylulokinase)	-1.2	0.84	inactive
MPP1 (MAGUK p55 scaffold protein 1)	0.506	0.97	inactive
CDK2 (cyclin dependent kinase 2)	0.826	0.994	inactive
PRKAR1B (protein kinase cAMP-dependent type I regulatory subunit beta)	0.428	0.964	inactive
PHKA2 (phosphorylase kinase regulatory subunit alpha 2)	-0.533	0.89	inactive
FLT1 (fms related receptor tyrosine kinase 1)	0.901	1	inactive
IGF2R (insulin like growth factor 2 receptor)	0.901	1	inactive
CSK (C-terminal Src kinase)	-0.655	0.881	inactive
ALPK1 (alpha kinase 1)	-1.01	0.854	inactive
KDR (kinase insert domain receptor)	0.89	0.999	inactive
CDKN1B (cyclin dependent kinase inhibitor 1B)	-0.519	0.892	inactive
AK4 (adenylate kinase 4)	0.901	1	inactive
SPHK1 (sphingosine kinase 1)	0.54	0.972	inactive
DYRK3 (dual specificity tyrosine phosphorylation regulated kinase 3)	0.705	0.985	inactive
BPTF (bromodomain PHD finger transcription factor)	-1.47	0.819	inactive
TLK2 (tousled like kinase 2)	0.901	1	inactive
NME4 (NME/NM23 nucleoside diphosphate kinase 4)	0.901	1	inactive
MKNK2 (MAPK interacting serine/threonine kinase 2)	-0.517	0.892	inactive
NTRK3 (neurotrophic receptor tyrosine kinase 3)	0.901	1	inactive
ACVR1C (activin A receptor type 1C)	0.901	1	inactive
RPS6KL1 (ribosomal protein S6 kinase like 1)	0.492	0.969	inactive
HIPK4 (homeodomain interacting protein kinase 4)	0.901	1	inactive
CDK12 (cyclin dependent kinase 12)	0.385	0.961	inactive
FER (FER tyrosine kinase)	0.746	0.988	inactive
MAP4K2 (mitogen-activated protein kinase kinase kinase kinase 2)	-0.48	0.894	inactive
PRKAB2 (protein kinase AMP-activated non-catalytic subunit beta 2)	-1.51	0.816	inactive
AK7 (adenylate kinase 7)	-0.632	0.883	inactive
NEK3 (NIMA related kinase 3)	0.755	0.989	inactive
WHR1 (winged helix repair factor 1)	-1.26	0.835	inactive
NEK5 (NIMA related kinase 5)	0.226	0.948	inactive
SF3B1 (splicing factor 3b subunit 1)	-4.72	0.57	active
